According to patent US20250368744A1 (CONCEPT TO MEDICINE BIOTECH, published 2025):
These are yes or no findings as the source states them, for the method shown. Some results given as binding are weak or reduced against the parent protein; the word gives no strength.

Protein sequences, listed by entry. Tags and fused reporters are not part of them. Lines headed by an entry give the natural chain unless they say otherwise; changes in a name come on top. Chains listed by the source or under a name are the forms on record and can include a tag or linker.
cyno CCR8 (G7NYJ2, form named): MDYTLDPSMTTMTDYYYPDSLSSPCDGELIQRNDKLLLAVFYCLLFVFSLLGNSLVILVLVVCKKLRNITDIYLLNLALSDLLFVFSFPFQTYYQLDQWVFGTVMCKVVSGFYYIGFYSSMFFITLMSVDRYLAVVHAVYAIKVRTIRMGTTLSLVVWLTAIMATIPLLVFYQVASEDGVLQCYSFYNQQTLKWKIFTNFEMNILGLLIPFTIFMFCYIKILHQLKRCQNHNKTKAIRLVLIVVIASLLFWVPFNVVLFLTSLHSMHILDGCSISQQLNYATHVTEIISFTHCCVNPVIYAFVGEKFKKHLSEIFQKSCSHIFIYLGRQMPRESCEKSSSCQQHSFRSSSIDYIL

B1: Hu195H8D10-5 (antibody, V domains shown)
VH: EVQLVESGGGLVQPGGSLRLSCAASGFNFNTYVMNWVRQAPGKGLEWVARIRTKSNNYATYYADSVKDRFTISRDDSKNSLYLQMNSLKTEDTAVYYCVSGTITRLGGGLDYWGQGTLVTVSS
VL: DIVMTQSPLSLPVTPGEPASISCRSSKRLLHSNGNTYLYWYLQKPGQSPQLLIYRMSNLASGVPDRFSGSGSGTDFTLKISRVEAEDVGVYYCMQHLEYPFTFGGGTKLEIK
notes: humanized
B2: Hu195H8D10-1 (antibody, V domains shown)
VH: EVQLVESGGGLVQPGGSLRLSCAASGFNFNTYVMNWVRQAPGKGLEWVGRIRTKSNNYATYYADSVKDRFTISRDDSKNSLYLQMNSLKTEDTAVYYCARGTITRLGGGLDYWGQGTLVTVSS
VL: DIVMTQSPLSLPVTPGEPASISCRSSKRLLHSNGNTYLYWYLQKPGQSPQLLIYRMSNLASGVPDRFSGSGSGTDFTLKISRVEAEDVGVYYCMQHLEYPFTFGGGTKLEIK
notes: humanized
B3: Hu195H8D10-9 (antibody, V domains shown)
VH: EVQLVESGGGLVQPGGSLRLSCAASGFNFNTYVMNWVRQAPGKGLEWVARIRTKSNNYATYYADSVKDRFTISRDDSKSSLYLQMNSLKTEDTAVYYCVSGTITRLGGGLDYWGQGTLVTVSS
VL: DIVMTQSPLSLPVTPGEPASISCRSSKRLLHSNGNTYLYWYLQKPGQSPQLLIYRMSNLASGVPDRFSGSGSGTDFTLKISRVEAEDVGVYYCMQHLEYPFTFGGGTKLEIK
notes: humanized
B4: Hu195H8D10-12 (antibody, V domains shown)
VH: EVQLVESGGGLVQPGGSLRLSCAASGFNFNTYVMNWVRQAPGKGLEWVARIRTKSNNYATYYADSVKDRFTISRDDSKSSLYLQMNSLKTEDTAVYYCVSGTITRLGGGLDYWGQGTLVTVSS
VL: DIVMTQSPLSLPVTPGEPASISCRSSKRLLHSNGNTYLYWFLQKPGQSPQLLIYRMSNLASGVPDRFSGSGSGTAFTLKISRVEAEDVGVYYCMQHLEYPFTFGGGTKLEIK
notes: humanized
B5: Hu195H8D10-13 (antibody, V domains shown)
VH: EVQLVESGGGLVQPGGSLRLSCAASGFNFNTYVMNWVRQAPGKGLEWVARIRTKSNNYATYYADSVKDRFTISRDDSESSLYLQMNSLKTEDTAMYYCVSGTITRLGGGLDYWGQGTLVTVSS
VL: DIVMTQSPLSLPVTPGEPASISCRSSKRLLHSNGNTYLYWYLQKPGQSPQLLIYRMSNLASGVPDRFSGSGSGTDFTLKISRVEAEDVGVYYCMQHLEYPFTFGGGTKLEIK
notes: humanized
B6: Hu195H8D10-14 (antibody, V domains shown)
VH: EVQLVESGGGLVQPGGSLRLSCAASGFNFNTYVMNWVRQAPGKGLEWVARIRTKSNNYATYYADSVKDRFTISRDDSESSLYLQMNSLKTEDTAMYYCVSGTITRLGGGLDYWGQGTLVTVSS
VL: DIVMTQSPLSLPVTPGEPASISCRSSKRLLHSNGNTYLYWFLQKPGQSPQLLIYRMSNLASGVPDRFSGSGSGTDFTLKISRVEAEDVGVYYCMQHLEYPFTFGGGTKLEIK
notes: humanized
B7: Hu200C9B9-1 (antibody, V domains shown)
VH: EVQLVESGGGLVQPGGSLRLSCAASGFSFNTYVMNWVRQAPGKGLEWVGRIRTKSNNYATFYVDSVKDRFTISRDDSKNSLYLQMNSLKTEDTAVYYCARGTITRLGAGLDYWGQGTLVTVSS
VL: DIVMTQSPLSLPVTPGEPASISCRSSKSLLHSNGNTYLYWYLQKPGQSPQLLIYRMSNLASGVPDRFSGSGSGTDFTLKISRVEAEDVGVYYCMQHLEYPFTFGGGTKLEIK
notes: humanized
B8: Hu200C9B9-5 (antibody, V domains shown)
VH: EVQLVESGGGLVQPGGSLRLSCAASGFSFNTYVMNWVRQAPGKGLEWVARIRTKSNNYATFYVDSVKDRFTISRDDSKNSLYLQMNSLKTEDTAVYYCVSGTITRLGAGLDYWGQGTLVTVSS
VL: DIVMTQSPLSLPVTPGEPASISCRSSKSLLHSNGNTYLYWYLQKPGQSPQLLIYRMSNLASGVPDRFSGSGSGTDFTLKISRVEAEDVGVYYCMQHLEYPFTFGGGTKLEIK
notes: humanized
B9: Hu200C9B9-8 (antibody, V domains shown)
VH: EVQLVESGGGLVQPGGSLRLSCAASGFSFNTYVMNWVRQAPGKGLEWVARIRTKSNNYATFYVDSVKDRFTISRDDSKNSLYLQMNSLKTEDTAVYYCVSGTITRLGAGLDYWGQGTLVTVSS
VL: DIVMTQSPLSLPVTPGEPASISCRSSKSLLHSNGNTYLYWFLQKPGQSPQLLIYRMSNLASGVPDRFSGSGSGTAFTLKISRVEAEDVGVYYCMQHLEYPFTFGGGTKLEIK
notes: humanized
B10: Hu200C9B9-10 (antibody, V domains shown)
VH: EVQLVESGGGLVQPGGSLRLSCAASGFSFNTYVMNWVRQAPGKGLNWVARIRTKSNNYATFYVDSVKDRFTISRDDSKNSLYLQMNSLKTEDTAVYYCVSGTITRLGAGLDYWGQGTLVTVSS
VL: DIVMTQSPLSLPVTPGEPASISCRSSKSLLHSNGNTYLYWFLQKPGQSPQLLIYRMSNLASGVPDRFSGSGSGTDFTLKISRVEAEDVGVYYCMQHLEYPFTFGGGTKLEIK
notes: humanized
B11: Hu200C9B9-11 (antibody, V domains shown)
VH: EVQLVESGGGLVQPGGSLRLSCAASGFSFNTYVMNWVRQAPGKGLNWVARIRTKSNNYATFYVDSVKDRFTISRDDSKNSLYLQMNSLKTEDTAVYYCVSGTITRLGAGLDYWGQGTLVTVSS
VL: DIVMTQSPLSLPVTPGEPASISCRSSKSLLHSNGNTYLYWYLQKPGQSPQLLIYRMSNLASGVPDRFSGSGSGTAFTLKISRVEAEDVGVYYCMQHLEYPFTFGGGTKLEIK
notes: humanized
B12: Hu195H8D10-7 (antibody, V domains shown)
VH: EVQLVESGGGLVQPGGSLRLSCAASGFNFNTYVMNWVRQAPGKGLEWVARIRTKSNNYATYYADSVKDRFTISRDDSKNSLYLQMNSLKTEDTAVYYCVSGTITRLGGGLDYWGQGTLVTVSS
VL: DIVMTQSPLSLPVTPGEPASISCRSSKRLLHSNGNTYLYWYLQKPGQSPQLLIYRMSNLASGVPDRFSGSGSGTAFTLKISRVEAEDVGVYYCMQHLEYPFTFGGGTKLEIK
notes: humanized
B13: Hu195H8D10-3 (antibody, V domains shown)
VH: EVQLVESGGGLVQPGGSLRLSCAASGFNFNTYVMNWVRQAPGKGLEWVGRIRTKSNNYATYYADSVKDRFTISRDDSKNSLYLQMNSLKTEDTAVYYCARGTITRLGGGLDYWGQGTLVTVSS
VL: DIVMTQSPLSLPVTPGEPASISCRSSKRLLHSNGNTYLYWYLQKPGQSPQLLIYRMSNLASGVPDRFSGSGSGTAFTLKISRVEAEDVGVYYCMQHLEYPFTFGGGTKLEIK
notes: humanized
B14: Hu195H8D10-6 (antibody, V domains shown)
VH: EVQLVESGGGLVQPGGSLRLSCAASGFNFNTYVMNWVRQAPGKGLEWVARIRTKSNNYATYYADSVKDRFTISRDDSKNSLYLQMNSLKTEDTAVYYCVSGTITRLGGGLDYWGQGTLVTVSS
VL: DIVMTQSPLSLPVTPGEPASISCRSSKRLLHSNGNTYLYWFLQKPGQSPQLLIYRMSNLASGVPDRFSGSGSGTDFTLKISRVEAEDVGVYYCMQHLEYPFTFGGGTKLEIK
notes: humanized
B15: Hu195H8D10-8 (antibody, V domains shown)
VH: EVQLVESGGGLVQPGGSLRLSCAASGFNFNTYVMNWVRQAPGKGLEWVARIRTKSNNYATYYADSVKDRFTISRDDSKNSLYLQMNSLKTEDTAVYYCVSGTITRLGGGLDYWGQGTLVTVSS
VL: DIVMTQSPLSLPVTPGEPASISCRSSKRLLHSNGNTYLYWFLQKPGQSPQLLIYRMSNLASGVPDRFSGSGSGTAFTLKISRVEAEDVGVYYCMQHLEYPFTFGGGTKLEIK
notes: humanized
B16: Hu195H8D10-10 (antibody, V domains shown)
VH: EVQLVESGGGLVQPGGSLRLSCAASGFNFNTYVMNWVRQAPGKGLEWVARIRTKSNNYATYYADSVKDRFTISRDDSKSSLYLQMNSLKTEDTAVYYCVSGTITRLGGGLDYWGQGTLVTVSS
VL: DIVMTQSPLSLPVTPGEPASISCRSSKRLLHSNGNTYLYWFLQKPGQSPQLLIYRMSNLASGVPDRFSGSGSGTDFTLKISRVEAEDVGVYYCMQHLEYPFTFGGGTKLEIK
notes: humanized
B17: Hu195H8D10-11 (antibody, V domains shown)
VH: EVQLVESGGGLVQPGGSLRLSCAASGFNFNTYVMNWVRQAPGKGLEWVARIRTKSNNYATYYADSVKDRFTISRDDSKSSLYLQMNSLKTEDTAVYYCVSGTITRLGGGLDYWGQGTLVTVSS
VL: DIVMTQSPLSLPVTPGEPASISCRSSKRLLHSNGNTYLYWYLQKPGQSPQLLIYRMSNLASGVPDRFSGSGSGTAFTLKISRVEAEDVGVYYCMQHLEYPFTFGGGTKLEIK
notes: humanized
B18: Hu195H8D10-15 (antibody, V domains shown)
VH: EVQLVESGGGLVQPGGSLRLSCAASGFNFNTYVMNWVRQAPGKGLEWVARIRTKSNNYATYYADSVKDRFTISRDDSESSLYLQMNSLKTEDTAMYYCVSGTITRLGGGLDYWGQGTLVTVSS
VL: DIVMTQSPLSLPVTPGEPASISCRSSKRLLHSNGNTYLYWYLQKPGQSPQLLIYRMSNLASGVPDRFSGSGSGTAFTLKISRVEAEDVGVYYCMQHLEYPFTFGGGTKLEIK
notes: humanized
B19: Hu195H8D10-16 (antibody, V domains shown)
VH: EVQLVESGGGLVQPGGSLRLSCAASGFNFNTYVMNWVRQAPGKGLEWVARIRTKSNNYATYYADSVKDRFTISRDDSESSLYLQMNSLKTEDTAMYYCVSGTITRLGGGLDYWGQGTLVTVSS
VL: DIVMTQSPLSLPVTPGEPASISCRSSKRLLHSNGNTYLYWFLQKPGQSPQLLIYRMSNLASGVPDRFSGSGSGTAFTLKISRVEAEDVGVYYCMQHLEYPFTFGGGTKLEIK
notes: humanized

Legend:
[1] = target: T1, cyno CCR8 (cynomolgus, UniProt G7NYJ2 1-355); assay: FACS (MFI-PE) on CHO-K1 cyno CCR8 cells, bars at five doses [cont'd) C]
T1 construct: whole, on cells; also called cynomolgus CCR8 protein

[2] = target: T1, cyno CCR8; assay: FACS, CHO-K1 cyno CCR8 cells
[3] = target: T1, cyno CCR8; assay: FACS (MFI-PE) on CHO-K1 cyno CCR8 cells, bars at five doses [cont'd) D]

binding [1] | binding [2] | binding [3] | Binder
binds | binds | – | B1
binds | binds | – | B2
binds | binds | – | B3
binds | binds | – | B4
binds | binds | – | B5
binds | binds | – | B6
– | binds | binds | B7
– | binds | binds | B8
– | binds | binds | B9
– | binds | binds | B10
– | binds | binds | B11
binds | binds | – | B12
binds | binds | – | B13
binds | binds | – | B14
binds | binds | – | B15
binds | binds | – | B16
binds | binds | – | B17
binds | binds | – | B18
binds | binds | – | B19
